PubChem BioAssay AID652272 – Drosophila RNAi Screening Center, 2013
Aim: 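Finding fly genes that regulate Hedgehog signal transduction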 (primary screen). System: Drosophila clone 8 (Cl8) cells. Reagent: long dsRNA against Drosophila genes. Measurement: 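Firefly light from a Hedgehog-responsive ptc promoter reporter and Renilla reference light, both read on a plate reader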. Scale: firefly Hh reporter signal: higher = more ptc reporter light; Renilla reference signal: higher = more Renilla control light. Active means: 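Hit when the z-score averaged over two replicates is under -2 or over +3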. Meaning of the calls: active = hit: reporter lowered or raised; inactive = not a hit.
The deposit covers about 21,000 reagents; this is a random part of those that have a named target and a result. Of all reagents, 503 (2.4%) got an active call. 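Raw plate light values, not normalised; calls rest on replicate z-scores that were not deposited; hits include reporter decreases as well as increases.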 A plus sign joins genes that one reagent is predicted to hit. The record does not give: the amount of reagent, the time to read-out.

target | amplicon | firefly Hh reporter signal, replicate 1 | firefly Hh reporter signal, replicate 2 | firefly Hh reporter signal, replicate 3 | Renilla reference signal, replicate 1 | Renilla reference signal, replicate 2 | activity call
CG2663 | DRSC12314 | 94932 | 1.40e5 | – | 3304 | 3835 | inactive
CG42841 | DRSC07962 | 90507 | 1.38e5 | – | 2785 | 5848 | inactive
POLDIP2 (Polymerase (DNA-directed), delta interacting protein 2) | DRSC12194 | 1.27e5 | 1.10e5 | – | 4977 | 4085 | inactive
CG7101 | DRSC20023 | 2.00e5 | 1.57e5 | – | 4796 | 3955 | inactive
CG5665 | DRSC11783 | 87088 | 1.29e5 | – | 2449 | 4144 | inactive
uex (unextended) | DRSC20784 | 7.77e5 | 2.05e5 | – | 39691 | 4567 | inactive
uex (unextended) | DRSC20786 | 5.72e5 | 1.71e5 | – | 31296 | 3920 | inactive
CG31365 | DRSC15610 | 1.87e5 | 1.01e5 | – | 7162 | 4333 | inactive
CG17321 | DRSC02598 | 94480 | 52645 | – | 2564 | 5633 | inactive
CG3494 | DRSC04375 | 82520 | 81168 | – | 2048 | 5985 | inactive
CG7900 | DRSC16336 | 1.54e5 | 7.90e5 | 1.64e5 | 4784 | 5526 | inactive
CG4000 | DRSC15535 | 7.94e5 | 5.22e5 | 1.65e5 | 45453 | 3121 | inactive
CG3339 | DRSC13821 | 52656 | 2.34e5 | – | 12443 | 5195 | inactive
CG3339 | DRSC15479 | 75917 | 1.08e5 | – | 2808 | 3970 | inactive
Cpr76Ba (Cuticular protein 76Ba) | DRSC11060 | 1.09e5 | 67888 | – | 4274 | 2428 | inactive
CG10000 | DRSC14170 | 76118 | 1.09e5 | – | 3174 | 3312 | inactive
Gclm (Glutamate-cysteine ligase modifier subunit) | DRSC15677 | 1.03e5 | 73292 | – | 4290 | 3155 | inactive
SH3PX1 (SH3 and PX domain containing 1) | DRSC11139 | 30176 | 56981 | 44736 | 5931 | 3156 | inactive
CG43271 | DRSC01614 | 6.18e5 | 1.19e5 | 1.14e5 | 4065 | 3409 | inactive
Usp8 (Ubiquitin specific protease 8) | DRSC15876 | 1.23e5 | 1.26e5 | – | 5078 | 5426 | inactive
Surf1 (Surfeit 1) | DRSC11295 | 17700 | 23744 | – | 3032 | 2394 | inactive
Surf1 (Surfeit 1) | DRSC11394 | 1.30e5 | 1.52e5 | – | 5376 | 5769 | inactive
hydra | DRSC20497 | 84976 | 1.92e5 | – | 2630 | 7601 | inactive
Vps33B (Vacuolar protein sorting 33B) | DRSC15722 | 96357 | 1.30e5 | – | 1431 | 3330 | inactive
ATPsynGL (ATP synthase, subunit G-like) | DRSC03027 | 1.06e5 | 52086 | – | 2050 | 5602 | inactive
kl-5 (retired record) | DRSC20707 | 95723 | 2.49e5 | – | 4091 | 9287 | inactive
kl-5 (retired record) | DRSC20736 | 5.01e5 | 2.05e5 | – | 31713 | 4458 | inactive
kl-5 (retired record) | DRSC20773 | 6.28e5 | 1.87e5 | – | 34069 | 4261 | inactive
kl-5 (retired record) | DRSC21161 | 5.88e5 | 2.51e5 | – | 31859 | 5965 | inactive
CG5823 | DRSC15881 | 1.04e5 | 97731 | – | 4380 | 4230 | inactive
P5CDh1 (delta-1-Pyrroline-5-carboxylate dehydrogenase 1) | DRSC11801 | 88490 | 78093 | – | 2960 | 3622 | inactive
Pk34A (Protein kinase at 34A) | DRSC03398 | 1.57e5 | 58443 | – | 3888 | 5608 | inactive
CG3769 | DRSC02723 | 1.07e5 | 43908 | – | 2761 | 4073 | inactive
lbk (lambik) | DRSC07178 | 1.66e5 | 99863 | – | 6675 | 4012 | inactive
GluRIIE (Glutamate receptor IIE) | DRSC13431 | 54826 | 2.00e5 | – | 11590 | 4938 | inactive
CG12093 | DRSC08252 | 1.70e5 | 1.12e5 | – | 7131 | 2854 | inactive
Hrd3 (HMG-coA reductase degradation 3) | DRSC14156 | 88877 | 67664 | – | 4045 | 1350 | inactive
CG43064 | DRSC09133 | 89636 | 2.04e5 | – | 2539 | 8545 | inactive
Ran-like | DRSC10918 | 99126 | 51232 | – | 3897 | 2136 | inactive
CG16935 | DRSC06638 | 1.05e5 | 58020 | – | 2855 | 4459 | inactive
CG14420 | DRSC17917 | 62138 | 1.27e5 | – | 3012 | 5504 | inactive
karr | DRSC20681 | 1.27e5 | 3.33e5 | – | 5050 | 12407 | inactive
Mst84Dc (Male-specific RNA 84Dc) | DRSC12599 | 1.25e5 | 88248 | – | 5395 | 2965 | inactive
CG33523 | DRSC09814 | 59168 | 46208 | – | 6370 | 3256 | inactive
Hsp60C (Heat shock protein 60C) | DRSC03036 | 67146 | 29520 | – | 1330 | 3372 | inactive
CG13924 | DRSC08393 | 69802 | 44836 | – | 2120 | 3475 | inactive
CG14071 | DRSC02374 | 99448 | 66925 | – | 2664 | 5985 | inactive
Dhx15 (DEAH-box helicase 15) | DRSC06036 | 1.29e5 | 61845 | – | 4808 | 2345 | inactive
DUBAI + Tmem18 | DRSC05344 | 1.70e5 | 2.92e5 | – | 4268 | 12934 | inactive
fuss (fussel) | DRSC17200 | 1.31e5 | 3.34e5 | – | 5128 | 13142 | inactive
Cpr (Cytochrome P450 reductase) | DRSC03293 | 76787 | 1.18e5 | – | 2952 | 4522 | inactive
Cp38 (Chorion protein 38) | DRSC18453 | 1.24e5 | 3.01e5 | – | 3605 | 11050 | inactive
CG42240 | DRSC18097 | 1.08e5 | 54140 | – | 2476 | 1386 | inactive
Arp2 (Actin-related protein 2) | DRSC19332 | 74058 | 1.79e5 | – | 2890 | 6515 | inactive
CG17560 | DRSC15242 | 87687 | 1.37e5 | – | 3269 | 3805 | inactive
CG11050 | DRSC02125 | 66310 | 44118 | – | 3129 | 1369 | inactive
Eo (Ecdysone oxidase) | DRSC20187 | 1.00e5 | 2.26e5 | – | 1194 | 9530 | active

6 entries from above, showing only “firefly Hh reporter signal, replicate 2”:
Cp38 (Chorion protein 38) [DRSC18453] = 3.01e5
CG42240 [DRSC18097] = 54140
Arp2 (Actin-related protein 2) [DRSC19332] = 1.79e5
CG17560 [DRSC15242] = 1.37e5
CG11050 [DRSC02125] = 44118
Eo (Ecdysone oxidase) [DRSC20187] = 2.26e5
